Results taken from publication PMC9584953.

By UniProt entry, the sequences of proteins in these tests, tags left out. Where a name states a change or a piece, a line headed by the entry shows the natural chain unless it says otherwise.
UniProt E1W823: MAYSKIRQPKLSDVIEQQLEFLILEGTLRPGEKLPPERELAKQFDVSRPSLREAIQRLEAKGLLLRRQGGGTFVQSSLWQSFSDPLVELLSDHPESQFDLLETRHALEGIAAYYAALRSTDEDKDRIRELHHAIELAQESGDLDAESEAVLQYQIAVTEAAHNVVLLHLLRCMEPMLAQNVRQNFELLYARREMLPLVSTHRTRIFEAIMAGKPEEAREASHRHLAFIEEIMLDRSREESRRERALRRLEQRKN
UniProt P41030: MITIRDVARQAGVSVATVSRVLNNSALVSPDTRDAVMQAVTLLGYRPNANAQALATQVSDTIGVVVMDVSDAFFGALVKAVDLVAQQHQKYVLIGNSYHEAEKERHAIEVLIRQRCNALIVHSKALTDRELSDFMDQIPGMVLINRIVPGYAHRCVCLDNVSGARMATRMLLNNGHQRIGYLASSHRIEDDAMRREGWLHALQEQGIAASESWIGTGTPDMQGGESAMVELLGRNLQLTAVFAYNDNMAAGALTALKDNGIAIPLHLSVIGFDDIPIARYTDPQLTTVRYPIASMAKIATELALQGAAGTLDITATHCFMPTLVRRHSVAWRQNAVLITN

Assays:
Assay in all cases: pull-down; GST fusion (bait) on Glutathione-Sepharose 4B, 6His-tagged prey, 50 mM Tris-HCl pH 7.5, 4 °C, wash with 50 mM NaCl, elution with 500 mM NaCl, anti-6His immunoblot; both purified
[1] = molecular target: GST-PdhR (Salmonella enterica serovar Typhimurium) (UniProt E1W823)
[2] = molecular target: GST-NarL (Salmonella enterica serovar Typhimurium)
[3] = molecular target: GST-GntR (Salmonella enterica serovar Typhimurium)
[4] = molecular target: GST-YjfQ (Salmonella enterica serovar Typhimurium)
[5] = molecular target: GST-GalS (Salmonella enterica serovar Typhimurium) (UniProt P41030)

Measured: binding

TrxA-6His (recombinant thioredoxin, wild type) (from UniProt P0AA28 1-109)
binds: all assays above

Results are given in words; binding and its absence hold for the method and conditions named. Binding calls can cover weak binding; strength is not graded here.
